Measurements reported in PubChem BioAssay AID493246 (Drosophila RNAi Screening Center, 2011)
The deposit covers about 21,000 reagents; below is an unselected part of those that have a named target and a result. Of all reagents, 429 (2%) were called active. 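Values are raw and not normalised between plates; calls rest on per-plate z-scores that were not deposited.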 A number with no mark means an inactive call. The numbers tell different reagents against one gene apart. Reagent sequences are not shown. Not given: the amount of reagent, the time to read-out.

Purpose: 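Genes fly cells need to grow and stay alive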 (primary screen)
Cells: Drosophila Kc and S2R+ cells
Reagent: long dsRNA against Drosophila genes
Detection: 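Raw, unnormalised count of remaining cells in each well; per-plate z-scores of cell number underlie the calls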
Scale: Kc cell number and S2R+ cell number: higher = more cells remaining
Hit rule: 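Active when the per-plate z-score of cell number is 3 or more in the direction of fewer cells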

mod scored Kc cell number, rep 1 = 5.42e5; S2R+ cell number, rep 1 = 8.41e5. With knock-down of Erk7 #1 the results were Kc cell number, rep 1 = 1.55e6; Kc cell number, rep 2 = 1.52e6; S2R+ cell number, rep 1 = 1.04e6; S2R+ cell number, rep 2 = 1.11e6. After knock-down of Erk7 #2, the record shows Kc cell number, rep 1 = 1.54e6; Kc cell number, rep 2 = 1.49e6; S2R+ cell number, rep 1 = 1.04e6; S2R+ cell number, rep 2 = 1.06e6. After knock-down of RpS14a the results were Kc cell number, rep 1 = 8.38e5 (active); Kc cell number, rep 2 = 9.48e5; S2R+ cell number, rep 1 = 7.15e5; S2R+ cell number, rep 2 = 8.62e5. Or71a gave Kc cell number, rep 1 = 1.40e6; Kc cell number, rep 2 = 1.56e6; S2R+ cell number, rep 1 = 1.34e6; S2R+ cell number, rep 2 = 1.49e6. Knock-down of z came out at: Kc cell number, rep 1 = 3.08e5 (active); S2R+ cell number, rep 1 = 5.80e5.

Hits (from the list above):
RpS14a → Kc cell number, rep 1: 8.38e5 (active); Kc cell number, rep 2: 9.48e5; S2R+ cell number, rep 1: 7.15e5; S2R+ cell number, rep 2: 8.62e5
z → Kc cell number, rep 1: 3.08e5 (active); S2R+ cell number, rep 1: 5.80e5

The results go on.
For CG6106, the entry reads Kc cell number, rep 1 = 1.47e6; Kc cell number, rep 2 = 1.48e6; S2R+ cell number, rep 1 = 1.10e6; S2R+ cell number, rep 2 = 1.26e6. For Elba1, the values are Kc cell number, rep 1 = 1.55e6; Kc cell number, rep 2 = 1.49e6; S2R+ cell number, rep 1 = 1.22e6; S2R+ cell number, rep 2 = 1.38e6. Knock-down of bbc came out at: Kc cell number, rep 1 = 1.53e6; Kc cell number, rep 2 = 1.64e6; S2R+ cell number, rep 1 = 1.03e6; S2R+ cell number, rep 2 = 1.17e6. Depletion of CG11249 resulted in: Kc cell number, rep 1 = 1.32e6; Kc cell number, rep 2 = 1.34e6; S2R+ cell number, rep 1 = 1.31e6; S2R+ cell number, rep 2 = 1.36e6. Silencing of Sk2 came out at: Kc cell number, rep 1 = 1.06e6; Kc cell number, rep 2 = 1.28e6; S2R+ cell number, rep 1 = 1.14e6; S2R+ cell number, rep 2 = 6.59e5. Silencing of CG32301 resulted in: Kc cell number, rep 1 = 1.47e6; Kc cell number, rep 2 = 1.35e6; S2R+ cell number, rep 1 = 9.83e5; S2R+ cell number, rep 2 = 1.19e6.
